We go through 2 molecules from patent publication US20080105961A1, “Ligands of the Molecule Fit (Agt-121) and their Pharmaceutical Use” (priority 2004, published 2008).

The target in assay [1] is Polyubiquitin C (human). Briefly: yeast two-hybrid screen of a human brain cDNA library (3 clones).
The target in assay [2] is D. melanogaster transcription factor CG4654-PB (D. melanogaster). Description: yeast two-hybrid screen of a human brain cDNA library (1 clone).

Results are given in words; binding and its absence hold for the method and conditions named. Binding calls can cover weak binding; strength is not graded here.

B1: FIT-NP (FIT N-terminal plus proline-rich region), yeast two-hybrid bait (other, not shown: small tags and cut ends)
chain: MMEGLKKRTRKAFGIRKKEKDTDSTGSPDRDGMQPSPHELPYHSKAECAREGGKKASKKSNGAPNGFYAEIDWERYNSPELDEEGYSIRPEEPGSTKGKHFYSSSESEEEEESHKKFNIKIKPLQSKDILKNAATVDELKASIGNIALSPSPVRKSPRRSPGAIKRNLSSEEVARPRRSTPTPELTSKKPLDDTLALAPLFGPPLESAFDGHKTEVLLDQPEIWGSGQPVNPSMESPKLARPFPTGTPPPLPPKTVPATPPRTGSPLTVATGNDQAATEAKIEKPPSISDLDSIFGPVLSPKSVAVNTEETWVHFSDASPEHVTPELTPREKVVTPPAASDIPADSPTPGPPGPPGSAGPPGPPGPRNVPSPLNLEEVQKKVAEQTFIKDDYLETLSSPKECGLGQRETPPPPPPPTYRTVVSSPGPGSGSGTGTASGASSPARPATPLVPCSCSTPPPPPPRPPSRPKLPPGKPGVGDVSRPFSPPIHSSSPPPIAPL
notes: Truncated fragment of FIT used as bait in a yeast two-hybrid screen of a human brain cDNA library; also called AGT-121
Turning to B1, the binding result in assay [1] is “binds”.

B2: FIT-PR (FIT proline-rich region), yeast two-hybrid bait (other, not shown: small tags and cut ends)
chain: RPFPTGTPPPLPPKTVPATPPRTGSPLTVATGNDQAATEAKIEKPPSISDLDSIFGPVLSPKSVAVNTEETWVHFSDASPEHVTPELTPREKVVTPPAASDIPADSPTPGPPGPPGSAGPPGPPGPRNVPSPLNLEEVQKKVAEQTFIKDDYLETLSSPKECGLGQRATPPPPPPPTYRTVVSSPGPGSGSGTGTASGASSPARPATPLVPCSCSTPPPPPPRPPSRPKLPPGKPGVGDVSRPFSPPIHSSSPPPIAPL
notes: as for B1
Turning to B2, in assay [2], the binding entry is given as “binds”.
